Laboratory results taken from patent US20250243292A1.
No constants are given. Whether binding was seen depends on the method and setting. Some entries that bind do so weakly or less than the wild type. For part of these data: Where a sequence is shown, tags or fusion partners need not be part of it.

Columns and labels:
3B6 [1] = experiment: peptide inhibition assay
3B6 [2] = experiment: peptide inhibition ELISA, peptide pre-incubated with 3B6, plate coated with NO-CD24
N-CD24 = target: T1, N-CD24; experiment: ELISA
T1 sequence (chain, N-glycans removed with N-glycanase; sialic acid and O-glycans kept): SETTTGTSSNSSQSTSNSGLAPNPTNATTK

N-SA-O-CD24 = target: T2, N-SA-O-CD24; experiment: ELISA
T2 sequence (chain, N-glycans, sialic acid and O-glycans removed): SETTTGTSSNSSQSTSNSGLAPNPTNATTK

[3] = target: T3, fully glycosylated CD24 (recombinant, from CHO cells); experiment: ELISA
T3 sequence (chain, N-glycans, sialic acid and O-glycans kept (untreated)): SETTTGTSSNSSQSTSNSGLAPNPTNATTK

[4] = target: T4, human CD24 as expressed on cancer cell lines and in tumor tissues (human); experiment: FACS on neuroblastoma cell lines
T4 sequence (chain, cancer-type glycosylation, not further described; GPI-linked): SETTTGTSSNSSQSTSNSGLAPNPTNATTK

[5] = target: T4, human CD24 as expressed on cancer cell lines and in tumor tissues (human); experiment: IFA staining of medulloblastoma tumors
[6] = target: T4, human CD24 as expressed on cancer cell lines and in tumor tissues (human); experiment: flow cytometry on neuroblastoma cell lines (FIG. 2A)
[7] = target: T4, human CD24 as expressed on cancer cell lines and in tumor tissues (human); experiment: immunofluorescence staining of 4 medulloblastoma tumors
[8] = target: T4, human CD24 as expressed on cancer cell lines and in tumor tissues (human); experiment: flow cytometry on IMR32, SK-N-SH, SH-SY5Y, SK-N-BE(2), SK-N-BE(2) C cells
[9] = target: T4, human CD24 as expressed on cancer cell lines and in tumor tissues (human); experiment: flow cytometry on human cancer cell lines
[10] = target: T4, human CD24 as expressed on cancer cell lines and in tumor tissues (human); experiment: flow cytometry on NCI-H727 and IMR32 cells
[11] = target: T4, human CD24 as expressed on cancer cell lines and in tumor tissues (human); experiment: flow cytometry with biotinylated antibodies on NCI-H727 and IMR32 cells
CD24-GST fusion protein [12] = target: T5, CD24-GST fusion protein; experiment: ELISA on coated CD24-GST with expression media, against IgG amount by anti-human IgG ELISA
T5 sequence: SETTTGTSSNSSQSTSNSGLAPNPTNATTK

[13] = target: T4, human CD24 as expressed on cancer cell lines and in tumor tissues (human); experiment: antibody titration on H727 and IMR32 cells
CD24-GST fusion protein [14] = target: T5, CD24-GST fusion protein; experiment: ELISA on coated CD24-GST, goat-anti-human IgG-HRP detection
[15] = target: T4, human CD24 as expressed on cancer cell lines and in tumor tissues (human); experiment: immunofluorescence with biotinylated PP6373 on cancer tissues

Measured: binding

B1: peptide 4 (peptide)
peptide: SNSGLAPNPT
binds: 3B6 [1] | 3B6 [2]

B2: 3B6 (antibody, V domains shown)
VH: EVKFEESGGGLVQPGGSIKLSCAASGVTFSEAWMDWVRQSPEKGLEWVAEIRDKTKNYVTYYAESVKGRFTISRDDSKSRVYLQMNNLRTEDTGIYYCTGAMDYWGQGTSVTVSS
VL: DIVMTQTPLSLSVTIGQPASISCKSSQSLLYSNGKTYLNWLQQRPGQSPKRLIYQVSKLDPGIPDRFSGSGSETDFTLKISRVEAEDLGIYYCLQGTSYPWTFGGGTKLEIKR
binds: N-CD24 | N-SA-O-CD24 | [3] | [4] | [5] | [6] | [7] | [8]

B3: H2L3 (antibody, V domains shown)
VH: EVQFVESGGGLVQPGGSLKLSCAASGVTFSEAWMDWVRQASGKGLEWVAEIRDKPNSYVTYYAESVKGRFTISRDDSKSTAYLQMNSLKTEDTAVYYCTGAMDYWGQGTLVTVSS
VL: DIVMTQTPLSLSVTIGQPASISCKSSQSLLYSNGKTYLNWLLQKPGQSPKRLIYQVSKLDPGIPDRFSGSGSETDFTLKISRVEAEDVGIYYCMQGSSLPWTFGGGTKVEIKR
binds: [9] | [10] | [11] | CD24-GST fusion protein [12]

B4: H4L3 (antibody, V domains shown)
VH: EVQFVESGGGLVQPGGSLKLSCAASGVTFSEAWMDWVRQASGKGLEWVAEIRDKPNSYVTYYAESVKGRFTISRDDSKSTVYLQMNSLKTEDTAIYYCTGAMDYWGQGTLVTVSS
VL: DIVMTQTPLSLSVTIGQPASISCKSSQSLLYSNGKTYLNWLLQKPGQSPKRLIYQVSKLDPGIPDRFSGSGSETDFTLKISRVEAEDVGIYYCMQGSSLPWTFGGGTKVEIKR
binds: CD24-GST fusion protein [12]

B5: H1L3 (antibody, V domains shown)
VH: EVQFVESGGGLVQPGGSLKLSCAASGVTFSEAWMDWVRQASGKGLEWVGEIRDKPNSYVTYYAESVKGRFTISRDDSKNTAYLQMNSLKTEDTAVYYCTGAMDYWGQGTLVTVSS
VL: DIVMTQTPLSLSVTIGQPASISCKSSQSLLYSNGKTYLNWLLQKPGQSPKRLIYQVSKLDPGIPDRFSGSGSETDFTLKISRVEAEDVGIYYCMQGSSLPWTFGGGTKVEIKR
binds: CD24-GST fusion protein [12]

B6: H3L3 (antibody, V domains shown)
VH: EVQFVESGGGLVQPGGSLKLSCAASGVTFSEAWMDWVRQASGKGLEWVAEIRDKPNSYVTYYAESVKGRFTISRDDSKSTAYLQMNSLKTEDTAIYYCTGAMDYWGQGTLVTVSS
VL: DIVMTQTPLSLSVTIGQPASISCKSSQSLLYSNGKTYLNWLLQKPGQSPKRLIYQVSKLDPGIPDRFSGSGSETDFTLKISRVEAEDVGIYYCMQGSSLPWTFGGGTKVEIKR
binds: [9] | [10] | [11] | CD24-GST fusion protein [12]

B7: PP6373 (antibody, human IgG1, kappa, V domains shown)
VH: EVKFEESGGGLVQPGGSIKLSCAASGVTFSEAWMDWVRQSPEKGLEWVAEIRDKPNSYVTYYAESVKGRFTISRDDSKSRVYLQMNNLRTEDTGIYYCTGAMDYWGQGTSVTVSS
VL: DIVMTQTPLSLSVTIGQPASISCKSSQSLLYSNGKTYLNWLQQRPGQSPKRLIYQVSKLDPGIPDRFSGSGSETDFTLKISRVEAEDLGIYYCMQGSSLPWTFGGGTKLEIKR
binds: [13] | CD24-GST fusion protein [14] | [15] | [11]
